From paper PMC12270184
These are yes or no findings as the source states them, for the method shown. Some results given as binding are weak or reduced against the parent protein; the word gives no strength.

Target: Dihydrolipoamide S-acetyltransferase (DLAT) (mouse (endogenous in substantia nigra tissue of C57BL/6J mice)) (UniProt Q8BMF4)
Test: Western blot of oligomers; SN tissue of Saline and MPTP-treated mice homogenised in RIPA buffer with PMSF, SDS-PAGE, blot with anti-DLAT antibody; gel conditions for the oligomer band not told

B1: Dihydrolipoamide S-acetyltransferase (DLAT) (protein, UniProt Q8BMF4 86-642)
chain: SLPPHQKVPLPSLSPTMQAGTIARWEKKEGEKISEGDLIAEVETDKATVGFESLEECYMAKILVPEGTRDVPVGSIICITVEKPQDIEAFKNYTLDLAAAAAPQAAPAAAPAPAAAPAAPSASAPGSSYPTHMQIVLPALSPTMTMGTVQRWEKKVGEKLSEGDLLAEIETDKATIGFEVQEEGYLAKILVPEGTRDVPLGAPLCIIVEKQEDIAAFADYRPTEVTSLKPQAAPPAPPPVAAVPPTPQPVAPTPSAAPAGPKGRVFVSPLAKKLAAEKGIDLTQVKGTGPEGRIIKKDIDSFVPSKAAPAAAAAMAPPGPRVAPAPAGVFTDIPISNIRRVIAQRLMQSKQTIPHYYLSVDVNMGEVLLVRKELNKMLEGKGKISVNDFIIKASALACLKVPEANSSWMDTVIRQNHVVDVSVAVSTPAGLITPIVFNAHIKGLETIASDVVSLASKAREGKLQPHEFQGGTFTISNLGMFGIKNFSAIINPPQACILAIGASEDKLIPADNEKGFDVASVMSVTLSCDHRVVDGAVGAQWLAEFKKYLEKPITMLL
With B1 the binding was “binds”.
